Consider one molecule from article PMC6477179.

No constants are given. Whether binding was seen depends on the method and setting. In cells and extracts the contact can be indirect. Some results given as binding are weak or reduced against the parent protein; the word gives no strength. Tags and fused reporters may be left off the sequences shown.

This assay has as its target T1, 9xmyc-Atg11 (S. cerevisiae) (UniProt Q12527).
T1 sequence: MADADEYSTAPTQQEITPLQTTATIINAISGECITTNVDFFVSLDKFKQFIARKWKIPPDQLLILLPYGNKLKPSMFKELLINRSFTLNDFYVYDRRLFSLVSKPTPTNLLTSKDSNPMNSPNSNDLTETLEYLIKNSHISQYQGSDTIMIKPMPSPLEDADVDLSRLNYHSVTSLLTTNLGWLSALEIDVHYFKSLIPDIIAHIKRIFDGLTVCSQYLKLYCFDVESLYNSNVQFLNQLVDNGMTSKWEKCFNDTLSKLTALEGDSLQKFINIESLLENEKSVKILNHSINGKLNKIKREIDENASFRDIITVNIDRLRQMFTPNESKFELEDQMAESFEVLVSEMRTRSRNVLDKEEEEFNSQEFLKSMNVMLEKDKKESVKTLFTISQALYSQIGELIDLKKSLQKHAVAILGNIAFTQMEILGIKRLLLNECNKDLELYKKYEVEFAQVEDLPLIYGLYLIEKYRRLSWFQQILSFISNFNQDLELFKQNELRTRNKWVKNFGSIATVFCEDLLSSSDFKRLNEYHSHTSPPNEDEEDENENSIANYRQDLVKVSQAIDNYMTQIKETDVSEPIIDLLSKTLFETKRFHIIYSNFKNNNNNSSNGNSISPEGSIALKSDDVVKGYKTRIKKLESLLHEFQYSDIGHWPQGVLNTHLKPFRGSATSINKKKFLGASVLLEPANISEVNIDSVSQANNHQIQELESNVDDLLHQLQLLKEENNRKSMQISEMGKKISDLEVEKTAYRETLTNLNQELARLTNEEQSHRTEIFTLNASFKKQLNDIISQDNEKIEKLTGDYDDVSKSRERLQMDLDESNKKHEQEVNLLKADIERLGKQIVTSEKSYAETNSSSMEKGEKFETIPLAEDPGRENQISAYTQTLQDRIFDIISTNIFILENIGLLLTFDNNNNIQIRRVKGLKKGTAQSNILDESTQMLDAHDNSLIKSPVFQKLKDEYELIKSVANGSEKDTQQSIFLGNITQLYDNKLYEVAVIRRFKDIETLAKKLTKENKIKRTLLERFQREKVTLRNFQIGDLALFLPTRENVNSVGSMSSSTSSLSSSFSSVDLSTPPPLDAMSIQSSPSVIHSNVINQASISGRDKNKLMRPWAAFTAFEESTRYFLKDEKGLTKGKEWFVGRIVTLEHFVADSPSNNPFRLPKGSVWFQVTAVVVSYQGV
Put plainly: co-IP; S. cerevisiae Atg11Δ with pRS315-9myc-Atg11 plasmids, grown in YPD; anti-myc Dynabeads 1 h at 4°C in RLB+ buffer; western blot with anti-myc and anti-Atg19.

B1: Atg19 (endogenous, S. cerevisiae) (protein, UniProt P35193 1-415)
chain: MNNSKTNQQMNTSMGYPLTVYDECNKFQLIVPTLDANIMLWCIGQLSLLNDSNGCKHLFWQPNDKSNVRILLNNYDYGHLFKYLQCQRKCSVYIGEGTLKKYNLTISTSFDNFLDLTPSEEKESLCREDAHEDPVSPKAGSEEEISPNSTSNVVVSRECLDNFMKQLLKLEESLNKLELEQKVTNKEPNHRISGTIDIPEDRSELVNFFTELKTVKQLEDVFQRYHDYERLSQECDSKTEIASDHSKKETKIEVEPPNERSLQITMNQRDNSLYFQLFNNTNSVLAGNCKLKFTDAGDKPTTQIIDMGPHEIGIKEYKEYRYFPYALDLEAGSTIEIENQYGEVIFLGKYGSSPMINLRPPSRLSAESLQASQEPFYSFQIDTLPELDDSSIISTSISLSYDGDDNEKALTWEEL
For B1, the binding entry is recorded as “binds”.
